Reference: the supplement of paper PMC10849652
This is one part of the list.

By UniProt entry, the sequences of proteins in these tests, tags left out. Where a name states a change or a piece, a line headed by the entry shows the natural chain unless it says otherwise.
UniProt Q96BS2: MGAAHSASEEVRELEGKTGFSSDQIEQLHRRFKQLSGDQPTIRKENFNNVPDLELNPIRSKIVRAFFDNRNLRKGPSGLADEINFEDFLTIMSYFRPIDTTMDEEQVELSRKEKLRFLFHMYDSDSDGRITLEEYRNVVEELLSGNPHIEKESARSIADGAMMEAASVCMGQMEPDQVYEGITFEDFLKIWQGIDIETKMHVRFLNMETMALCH
UniProt P62072: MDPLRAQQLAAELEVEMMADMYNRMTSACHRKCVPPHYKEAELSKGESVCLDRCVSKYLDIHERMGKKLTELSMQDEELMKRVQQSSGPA
UniProt Q03167: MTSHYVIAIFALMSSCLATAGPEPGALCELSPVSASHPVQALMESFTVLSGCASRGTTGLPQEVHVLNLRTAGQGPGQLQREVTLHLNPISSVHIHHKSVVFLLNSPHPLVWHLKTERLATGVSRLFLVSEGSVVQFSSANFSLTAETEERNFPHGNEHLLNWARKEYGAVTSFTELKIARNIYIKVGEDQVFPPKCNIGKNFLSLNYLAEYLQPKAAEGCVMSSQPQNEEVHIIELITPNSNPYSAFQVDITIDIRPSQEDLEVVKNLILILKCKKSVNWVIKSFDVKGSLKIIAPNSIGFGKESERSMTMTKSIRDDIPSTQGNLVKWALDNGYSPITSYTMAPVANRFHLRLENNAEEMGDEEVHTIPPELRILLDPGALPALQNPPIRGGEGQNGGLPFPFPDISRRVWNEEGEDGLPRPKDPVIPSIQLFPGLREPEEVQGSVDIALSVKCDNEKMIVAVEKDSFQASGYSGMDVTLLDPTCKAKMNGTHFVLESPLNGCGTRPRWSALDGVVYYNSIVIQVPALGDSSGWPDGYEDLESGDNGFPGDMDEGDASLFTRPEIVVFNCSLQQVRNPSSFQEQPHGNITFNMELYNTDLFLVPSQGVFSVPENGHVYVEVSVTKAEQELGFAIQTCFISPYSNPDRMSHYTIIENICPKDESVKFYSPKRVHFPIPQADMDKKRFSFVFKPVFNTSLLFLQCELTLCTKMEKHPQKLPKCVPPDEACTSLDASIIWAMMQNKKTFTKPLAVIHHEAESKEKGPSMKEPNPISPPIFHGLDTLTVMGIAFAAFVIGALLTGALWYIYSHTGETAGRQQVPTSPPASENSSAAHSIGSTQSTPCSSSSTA
UniProt O60907: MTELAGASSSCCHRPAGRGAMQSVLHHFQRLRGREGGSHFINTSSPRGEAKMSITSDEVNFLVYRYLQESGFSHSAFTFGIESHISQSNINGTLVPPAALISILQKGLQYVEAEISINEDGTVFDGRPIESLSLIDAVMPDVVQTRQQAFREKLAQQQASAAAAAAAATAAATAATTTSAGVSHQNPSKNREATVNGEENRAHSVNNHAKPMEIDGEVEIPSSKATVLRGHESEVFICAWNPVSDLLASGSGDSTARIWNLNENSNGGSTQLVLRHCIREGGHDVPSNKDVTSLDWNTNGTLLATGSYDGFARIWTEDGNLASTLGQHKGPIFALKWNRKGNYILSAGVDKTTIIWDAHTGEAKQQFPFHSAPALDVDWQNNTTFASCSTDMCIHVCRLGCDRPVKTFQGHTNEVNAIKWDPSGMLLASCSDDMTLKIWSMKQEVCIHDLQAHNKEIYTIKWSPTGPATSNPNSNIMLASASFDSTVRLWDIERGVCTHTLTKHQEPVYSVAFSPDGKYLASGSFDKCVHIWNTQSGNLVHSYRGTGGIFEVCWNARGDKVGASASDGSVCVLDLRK
UniProt Q96MV1: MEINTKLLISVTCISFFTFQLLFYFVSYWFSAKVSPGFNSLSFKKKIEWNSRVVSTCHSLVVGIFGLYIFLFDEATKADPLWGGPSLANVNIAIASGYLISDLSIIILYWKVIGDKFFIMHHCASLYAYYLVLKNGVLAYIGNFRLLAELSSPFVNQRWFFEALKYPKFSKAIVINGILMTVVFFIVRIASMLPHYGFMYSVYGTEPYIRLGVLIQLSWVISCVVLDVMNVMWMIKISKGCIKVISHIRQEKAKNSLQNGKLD
UniProt O43615: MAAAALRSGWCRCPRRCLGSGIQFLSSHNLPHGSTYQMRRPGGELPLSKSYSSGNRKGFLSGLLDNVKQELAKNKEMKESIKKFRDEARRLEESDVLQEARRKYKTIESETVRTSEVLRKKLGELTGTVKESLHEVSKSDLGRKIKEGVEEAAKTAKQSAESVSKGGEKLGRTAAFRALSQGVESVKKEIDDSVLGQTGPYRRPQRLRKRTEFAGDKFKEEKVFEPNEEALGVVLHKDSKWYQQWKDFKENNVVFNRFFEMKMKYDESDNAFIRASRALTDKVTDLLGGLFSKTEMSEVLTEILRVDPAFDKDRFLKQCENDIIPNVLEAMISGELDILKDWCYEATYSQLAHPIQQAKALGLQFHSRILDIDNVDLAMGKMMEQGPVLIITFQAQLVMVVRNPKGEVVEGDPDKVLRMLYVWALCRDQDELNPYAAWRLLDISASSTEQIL
UniProt Q969Z0: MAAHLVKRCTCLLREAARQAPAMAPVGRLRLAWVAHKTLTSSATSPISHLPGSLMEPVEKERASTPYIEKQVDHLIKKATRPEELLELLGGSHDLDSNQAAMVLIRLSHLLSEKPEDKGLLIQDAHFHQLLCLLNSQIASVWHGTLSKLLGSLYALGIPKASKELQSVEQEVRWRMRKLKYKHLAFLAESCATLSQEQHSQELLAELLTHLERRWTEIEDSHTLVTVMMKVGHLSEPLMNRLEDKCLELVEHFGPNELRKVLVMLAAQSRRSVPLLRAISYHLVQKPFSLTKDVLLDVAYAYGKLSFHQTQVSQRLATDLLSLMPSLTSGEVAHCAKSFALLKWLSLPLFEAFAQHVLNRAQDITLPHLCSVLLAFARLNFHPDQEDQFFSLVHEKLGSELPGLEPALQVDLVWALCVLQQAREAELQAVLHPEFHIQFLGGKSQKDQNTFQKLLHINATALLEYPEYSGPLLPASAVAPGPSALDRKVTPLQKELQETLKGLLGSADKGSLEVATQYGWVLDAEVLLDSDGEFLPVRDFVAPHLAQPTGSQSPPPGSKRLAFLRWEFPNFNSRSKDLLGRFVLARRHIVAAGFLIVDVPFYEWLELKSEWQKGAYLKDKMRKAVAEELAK
UniProt Q96FV9: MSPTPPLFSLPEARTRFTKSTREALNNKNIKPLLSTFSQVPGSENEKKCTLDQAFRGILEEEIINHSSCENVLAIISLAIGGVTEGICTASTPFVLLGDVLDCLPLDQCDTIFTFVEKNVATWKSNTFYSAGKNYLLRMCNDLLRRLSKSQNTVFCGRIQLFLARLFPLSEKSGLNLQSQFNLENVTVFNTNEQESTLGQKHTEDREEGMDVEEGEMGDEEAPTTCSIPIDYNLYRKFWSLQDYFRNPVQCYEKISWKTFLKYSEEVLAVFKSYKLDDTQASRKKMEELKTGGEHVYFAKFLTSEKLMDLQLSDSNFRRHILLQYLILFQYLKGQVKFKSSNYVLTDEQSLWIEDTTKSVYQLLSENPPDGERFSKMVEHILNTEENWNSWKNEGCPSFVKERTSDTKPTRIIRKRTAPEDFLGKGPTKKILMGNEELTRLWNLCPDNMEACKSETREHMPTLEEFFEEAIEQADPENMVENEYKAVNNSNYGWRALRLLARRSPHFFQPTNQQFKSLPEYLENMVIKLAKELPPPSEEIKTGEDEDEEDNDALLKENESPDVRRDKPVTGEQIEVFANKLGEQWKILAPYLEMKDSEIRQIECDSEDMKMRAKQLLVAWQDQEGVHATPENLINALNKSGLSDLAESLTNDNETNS
UniProt Q13428: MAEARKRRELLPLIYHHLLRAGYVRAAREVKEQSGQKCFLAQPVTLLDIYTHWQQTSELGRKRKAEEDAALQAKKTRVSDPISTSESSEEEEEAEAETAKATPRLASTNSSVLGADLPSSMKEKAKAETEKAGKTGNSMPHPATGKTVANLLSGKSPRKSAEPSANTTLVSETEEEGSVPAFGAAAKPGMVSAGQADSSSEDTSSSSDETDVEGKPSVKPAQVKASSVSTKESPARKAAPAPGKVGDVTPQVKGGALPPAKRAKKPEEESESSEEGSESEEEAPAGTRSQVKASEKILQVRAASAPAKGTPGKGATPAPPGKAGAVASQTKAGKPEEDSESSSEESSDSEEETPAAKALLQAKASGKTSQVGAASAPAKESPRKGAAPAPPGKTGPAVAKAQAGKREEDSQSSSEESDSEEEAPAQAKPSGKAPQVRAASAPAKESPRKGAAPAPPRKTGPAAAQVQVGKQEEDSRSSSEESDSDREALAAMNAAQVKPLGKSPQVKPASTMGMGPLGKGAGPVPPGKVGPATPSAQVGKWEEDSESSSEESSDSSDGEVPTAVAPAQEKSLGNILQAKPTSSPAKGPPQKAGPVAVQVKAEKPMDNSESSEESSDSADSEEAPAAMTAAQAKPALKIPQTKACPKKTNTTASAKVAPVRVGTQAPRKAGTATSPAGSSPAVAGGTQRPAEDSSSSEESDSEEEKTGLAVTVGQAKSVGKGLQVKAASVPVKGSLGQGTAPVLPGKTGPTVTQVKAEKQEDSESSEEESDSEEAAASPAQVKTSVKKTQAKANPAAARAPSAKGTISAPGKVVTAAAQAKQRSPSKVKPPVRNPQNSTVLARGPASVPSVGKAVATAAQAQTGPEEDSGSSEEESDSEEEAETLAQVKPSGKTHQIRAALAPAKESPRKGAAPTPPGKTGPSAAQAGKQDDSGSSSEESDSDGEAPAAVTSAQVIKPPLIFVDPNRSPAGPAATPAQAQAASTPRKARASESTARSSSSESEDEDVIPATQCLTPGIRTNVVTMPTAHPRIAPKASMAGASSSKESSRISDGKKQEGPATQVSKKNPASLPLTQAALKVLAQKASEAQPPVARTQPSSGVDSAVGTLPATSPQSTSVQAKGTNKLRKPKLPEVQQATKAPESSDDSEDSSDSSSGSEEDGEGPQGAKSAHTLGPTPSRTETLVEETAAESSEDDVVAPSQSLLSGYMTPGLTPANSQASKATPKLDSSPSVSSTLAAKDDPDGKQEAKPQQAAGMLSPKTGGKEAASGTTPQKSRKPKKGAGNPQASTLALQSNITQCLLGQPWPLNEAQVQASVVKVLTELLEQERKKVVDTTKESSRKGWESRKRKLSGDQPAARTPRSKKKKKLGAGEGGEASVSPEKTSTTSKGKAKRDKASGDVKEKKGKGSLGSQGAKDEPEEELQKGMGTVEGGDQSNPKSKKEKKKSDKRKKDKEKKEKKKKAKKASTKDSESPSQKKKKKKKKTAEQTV

Experiments:
Test in all cases: log2 fold change, soluble protein after heating vs DMSO (PISA); higher = thermal stabilisation; K562 cells, 10 uM, 30 min; active = over 0.2 and 3.5 SD of the protein, either way, in both replicates (recomputed)
[1] = compound: C1=CC=C(C=C1)[C@H](COC2=CC3=C(C=C2)NC(=O)N3)NC(=O)C4=CC=CN(C4=O)CC5=CC(=C(C=C5)F)F
How it was run: (§1)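 Thermal stability values are relative to control samples and come from duplicates. They are expressed as log2 fold changes. For measurement, K562 cells (2×10^6 cells/mL) received 10 μM compound for 30 min, and aliquots were heated for 3 min over 48°C-58°C, pooled, and extracted at 4°C in PBS with 0.5% NP-40. Soluble protein, the supernatant after 21,000xg for 90 min, was quantified by TMTpro 16plex LC-MS/MS with equalised channel sums.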

[2] = compound: CC1=C(SC2=C1C(=N[C@H](C3=NN=C(N32)C)CC(=O)N)C4=CC=C(C=C4)Cl)C
How it was run: as §1

[3] = compound: CC1=C2C(=CC=C1)N=C(N(C2=O)C3=CC=CC=C3C)CN4C=NC5=C(N=CN=C54)N
How it was run: as §1

[4] = compound: Cc1sc2c(c1C)C(c1ccc(Cl)cc1)=N[C@@H](CC(=O)OC(C)(C)C)c1nnc(C)n1-2
How it was run: as §1

[5] = compound: c1ccc([C@@H]2C[C@H]2NC2CCNCC2)cc1
How it was run: as §1

Measured: log2 fold change

TESC (UniProt Q96BS2)
inactive: [1] 0.019 | [2] 0.022 | [3] 0.07 | [4] 0.002 | [5] -0.084

TIMM10 (UniProt P62072)
inactive: [1] -0.013 | [2] -0.043 | [3] 0.042 | [4] -0.033 | [5] 0.022

TGFBR3 (UniProt Q03167)
inactive: [1] -0.048 | [2] -0.007 | [3] -0.041 | [4] -0.006 | [5] 0.025

TBL1X (UniProt O60907)
inactive: [1] 0.007 | [2] 0.04 | [3] 0.008 | [4] -0.027 | [5] 0.03

TLCD4 (UniProt Q96MV1)
inactive: [1] 0.017 | [2] 0.028 | [3] -0.035 | [4] -0.059 | [5] 0.047

2 consecutive entries already listed, quoted:
TESC (UniProt Q96BS2)
inactive: [1] 0.019 | [2] 0.022 | [3] 0.07 | [4] 0.002 | [5] -0.084

TIMM10 (UniProt P62072)
inactive: [1] -0.013 | [2] -0.043 | [3] 0.042 | [4] -0.033 | [5] 0.022

(cont.)

TIMM44 (UniProt O43615)
inactive: [1] -0.099 | [2] 0.043 | [3] 0.088 | [4] 0.008 | [5] -0.017

TBRG4 (UniProt Q969Z0)
inactive: [1] -0.106 | [2] 0.022 | [3] 0.077 | [4] -0.049 | [5] -0.017

THOC1 (UniProt Q96FV9)
inactive: [1] 0.016 | [2] -0.001 | [3] 0.018 | [4] 0.048 | [5] 0.028

TCOF1 isoform 4 (UniProt Q13428)
inactive: [1] 0.016 | [2] 0.006 | [3] 0.018 | [4] 0.033 | [5] 0.042
